Record: PubChem BioAssay AID1053208 (Peter MacCallum Cancer Centre, 2014)
Shown is an unselected part of about 17,000 reagents tested. Over the whole deposit, 788 (4.7%) were called active. 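Calls rest on z-score classes alone; an extra cut-off of viability at most 70% of control was not applied to them.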 The numbers tell different reagents against one gene apart. Not all columns of the deposit are shown. Reagent sequences are not shown.

Purpose: 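Genes whose silencing cuts survival of bone tumour cells only with doxorubicin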 (primary screen)
System: mouse osteosarcoma cells, early-passage culture from an engineered mouse model of fibroblastic bone tumour
Knock-down reagent: siRNA pool against mouse genes, 40 nM
Duration: about 120 h (48 h before drug, then 72 h with drug)
Treatment: doxorubicin 100 nM for 72 h, roughly 30-40% inhibitory dose
Measured: 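Luminescent ATP signal taken as viability with or without 100 nM doxorubicin for 72 h; mean of two wells set against non-targeting siRNA and turned into robust z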
Direction: viability z-score with doxorubicin: higher = more viable cells under doxorubicin; viability z-score without drug: higher = more viable cells with knock-down alone
Hit rule: 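a pool counts as active when its viability z-score with doxorubicin is -2 or below and its z-score without drug lies between -2 and 2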

The opening 4 records as a preview:
gene symbol	reagent	combined z-score class	viability z-score with doxorubicin	viability z-score without drug	Outcome
Itpka	1	no change with or without drug	1.35	1.18	inactive
Ccdc42	1	no change with or without drug	0.11	0.17	inactive
Cul1	1	no change with or without drug	0.79	-0.17	inactive
Irgq	1	no change with or without drug	-0.22	-1.52	inactive

The listing, from the first entry:
gene symbol	reagent	combined z-score class	viability z-score with doxorubicin	viability z-score without drug	Outcome
Itpka	1	no change with or without drug	1.35	1.18	inactive
Ccdc42	1	no change with or without drug	0.11	0.17	inactive
Cul1	1	no change with or without drug	0.79	-0.17	inactive
Irgq	1	no change with or without drug	-0.22	-1.52	inactive
Washc2	1	no change with or without drug	0.11	0.51	inactive
Capza2	1	no change with or without drug	-0.11	-0.17	inactive
Uxs1	1	no change with or without drug	-1.69	-0.84	inactive
Corin	1	no change with or without drug	-1.8	0	inactive
Eif2s2	1	no change with or without drug	-1.35	-0.17	inactive
Cox10	1	no change with or without drug	0	0.51	inactive
Or8b4	1	no change with or without drug	0.22	0.84	inactive
Mcpt1	1	no change with or without drug	0.34	0.51	inactive
Anxa8	1	no change with or without drug	-0.9	0.84	inactive
Atp1a2	1	no change with or without drug	-1.12	-0.17	inactive
Cldn10	1	no change with or without drug	0.9	0.17	inactive
Or2w4	1	no change with or without drug	0.34	0.17	inactive
Usp9x	1	high cell count without drug only	0.22	2.36	inactive
Or8g27	1	no change with or without drug	-1.57	-1.18	inactive
Ppp4r4	1	no change with or without drug	-0.9	-0.17	inactive
Ccl4	1	low cell count with and without drug	-2.14	-2.19	inactive
Zfp11	1	no change with or without drug	-0.67	-0.84	inactive
Zfp169	1	no change with or without drug	1.01	0.67	inactive
Emc3	1	no change with or without drug	-0.79	-1.85	inactive
Tpp1	1	no change with or without drug	0.22	0.84	inactive
Mtfr1	1	no change with or without drug	0.67	1.69	inactive
Serpinb6c	1	no change with or without drug	1.35	0.17	inactive
Med20	1	no change with or without drug	-1.35	-0.84	inactive
Gpr61	1	no change with or without drug	0.11	-0.51	inactive
Gabrb2	1	no change with or without drug	0.34	0.17	inactive
Gabrb2	2	no change with or without drug	-0.67	-0.51	inactive
Rhoa	1	no change with or without drug	0.45	0.17	inactive
Mansc4	1	no change with or without drug	-0.45	-0.17	inactive
Abi2	1	no change with or without drug	0.79	1.18	inactive
Psma2	1	no change with or without drug	-1.57	-0.51	inactive
Elmod1	1	no change with or without drug	0.45	0.34	inactive
AI467606	1	no change with or without drug	0	0.17	inactive
Yes1	1	no change with or without drug	0.45	0.84	inactive
Pramel37	1	no change with or without drug	0.56	0.51	inactive
Mxd3	1	no change with or without drug	0.34	-0.17	inactive
Or4d5	1	low cell count with doxorubicin only	-2.25	-1.18	active
Rragc	1	no change with or without drug	-1.35	0	inactive
Crispld1	1	no change with or without drug	1.12	1.18	inactive
Serpina3n	1	no change with or without drug	-0.11	0.17	inactive
Apoh	1	no change with or without drug	1.12	-0.34	inactive
Yif1a	1	low cell count with doxorubicin only	-2.14	-0.67	active
Or10g6	1	no change with or without drug	-0.56	0.51	inactive
Rere	1	no change with or without drug	0.11	0.17	inactive
2900052L18Rik	1	no change with or without drug	0	-0.17	inactive
Zfp57	1	high cell count without drug only	1.12	2.53	inactive
Cfap68	1	no change with or without drug	1.12	-0.51	inactive
